Data as given in PubChem BioAssay AID256 (DTP/NCI, 2004).
The list does not hold the whole screen: it gathers tests that were run many times, whatever their T/C, doses with no T/C, and many T/C values between a quarter and a half above the control. Further doses and runs are listed elsewhere. T/C is the treated group as % of the vehicle group. Some entries give survivors of the animals treated and no T/C: the source holds a T/C of zero for them, seemingly a mark for toxic or unscored doses. Some survivor counts are full or nearly so, which does not show that the dose was tolerated: survival well below the control is almost never listed, so the zero probably covers shortened survival too. Counts of survivors are from the toxicity check (mostly the fifth day) where no day follows; animals may have died later. Schedules are NCI's codes, read here as Q, the interval in days (D) or hours (H), X, the number of doses. Where survival is the endpoint, the PubChem record calls one and a half times the control and up active, and a quarter to a half above the control has no call in these data; cut-offs in other NCI protocols can differ.

Test system: CD2F1 mice, L1210 leukemia ip, survival T/C
Assay: NCI In Vivo Anticancer Drug Screen. Data for tumor model L1210 Leukemia (intraperitoneal) in CD2F1 (CDF1) mice
Settings: T/C endpoint: mean survival time, higher T/C = longer survival
How it was run: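 Compound-dosed mice with transplantable tumor versus matched vehicle controls; endpoint ratio T/C reported.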

[1] = dose: 200.0 mg/kg/injection, schedule: Q04DX003 (ip), vehicle: saline
[2] = dose: 400.0 mg/kg/injection, schedule: Q04DX003 (ip), vehicle: saline
[3] = dose: 200.0 mg/kg/injection, schedule: Q01DX009 (ip), vehicle: saline with Tween-80
[4] = dose: 400.0 mg/kg/injection, schedule: Q01DX009 (ip), vehicle: saline with Tween-80
[5] = dose: 400.0 mg/kg/injection, schedule: Q04DX003 (ip), vehicle: saline with Tween-80
[6] = dose: 100.0 mg/kg/injection, schedule: Q01DX009 (ip), vehicle: saline with Tween-80
[7] = dose: 300.0 mg/kg/injection, schedule: Q01DX001 (ip), vehicle: saline

CC1(C)CC(NC(=O)NCCCl)CC(C)(C)N1
survivor count (dose: 100.0 mg/kg/injection, schedule: Q04DX003 (ip), vehicle: saline): 5 of 6 | survivor count [1]: 1 of 6 | survivor count [2]: 0 of 6

O=C(COc1ccc(Cl)cc1Cl)OCCI
survivor count (dose: 400.0 mg/kg/injection, schedule: Q04DX002 (ip), vehicle: saline with Tween-80): 0 of 3

Clc1ncc2cnccn12
survivor count [3]: 2 of 6 | survivor count [4]: 0 of 6

COc1ccc(CCNC(=O)Cc2ccc3cc(OC)c(OC)cc3c2)cc1OC
survivor count [4]: 3 of 6 | survivor count [5]: 6 of 6

NCc1ncn[nH]1
survivor count [2]: 4 of 6

COC1CC(CC2CCC(C)C(C(C)C(=O)O)O2)OC2(OC(C)(C3CCC(C)(C4OC(C5OC(O)(CO)C(C)CC5C)CC4C)O3)CC2C)C1C (stereo unspecified)
survivor count (dose: 5.0 mg/kg/injection, schedule: Q01DX009 (ip), vehicle: Klucel (hydroxypropylcellulose) (HPC)): 3 of 6

ClCCN(Cc1ccccc1)Cc1ccccc1
survivor count (dose: 50.0 mg/kg/injection, schedule: Q01DX009 (ip), vehicle: saline with Tween-80): 0 of 6 | survivor count [6]: 1 of 6 | survivor count [3]: 0 of 6

CCCCCOC(=O)Nc1cccc(O)c1
survivor count [5]: 3 of 6

C=CCN(CC=C)P(=O)(N1CC1C)N1CC1C (stereo unspecified)
T/C (dose: 1.8 mg/kg/injection, schedule: Q01DX009 (ip), vehicle: saline): 139 % of control | T/C (dose: 3.0 mg/kg/injection, schedule: Q01DX009 (ip), vehicle: saline): 131 % of control | T/C (dose: 5.0 mg/kg/injection, schedule: Q01DX001 (ip), vehicle: saline): 131 % of control | survivor count (dose: 5.0 mg/kg/injection, schedule: Q01DX009 (ip), vehicle: saline): 5 of 6 | T/C (dose: 9.5 mg/kg/injection, schedule: Q01DX001 (ip), vehicle: saline): 126 % of control | T/C (dose: 10.0 mg/kg/injection, schedule: Q01DX001 (ip), vehicle: saline): 140 % of control | T/C (dose: 19.0 mg/kg/injection, schedule: Q01DX001 (ip), vehicle: saline): 137 % of control | survivor count (dose: 38.0 mg/kg/injection, schedule: Q01DX001 (ip), vehicle: saline): 6 of 6 | survivor count (dose: 75.0 mg/kg/injection, schedule: Q01DX001 (ip), vehicle: saline): 3 of 6 | survivor count (dose: 150.0 mg/kg/injection, schedule: Q01DX001 (ip), vehicle: saline): 6 of 6 | survivor count [7]: 2 of 6

CCN(CC)C(=O)c1ccc[n+](Cc2ccc(Cl)c(Cl)c2)c1
survivor count [1]: 0 of 6 | survivor count [2]: 0 of 6

CC([NH-])CC[NH-].[Br][Pt+2][Br] (stereo unspecified)
T/C (dose: 6.25 mg/kg/injection, schedule: Q04DX003 (ip), vehicle: saline with Tween-80): 130 % of control | T/C (dose: 12.5 mg/kg/injection, schedule: Q04DX003 (ip), vehicle: saline with Tween-80): 125 % of control | T/C (dose: 25.0 mg/kg/injection, schedule: Q04DX003 (ip), vehicle: saline with Tween-80): 146 % of control

CN(C)N=C1CCCC1
survivor count [7]: 3 of 6

CSc1ccc(OC(=O)Nc2ccc(C)cc2C)cc1C
survivor count [6]: 3 of 3

CCOc1ccncc1[N+](=O)[O-]
survivor count (dose: 200.0 mg/kg/injection, schedule: Q01DX009 (ip), vehicle: saline sonified): 3 of 6 | survivor count (dose: 400.0 mg/kg/injection, schedule: Q01DX009 (ip), vehicle: saline sonified): 0 of 6

O=C1/C(=C\c2ccccc2)C2OCC=C3CN4CCC56c7ccccc7N1C5C2C3CC46 (stereo unspecified)
survivor count (dose: 150.0 mg/kg/injection, schedule: Q01DX001 (ip), vehicle: other): 0 of 6 | survivor count (dose: 300.0 mg/kg/injection, schedule: Q01DX001 (ip), vehicle: other): 0 of 6
